Experimental data from PMC8268887 (International Journal of Molecular Sciences, 2021).
Several values for one entry are separate records, joined by “and”; a condition that tells them apart may be missing. Equal values may be shown once.

Test system: HepG2 cell line ATCC HB-8065
Assay: Antiproliferative activity on HepG2 cell line (MTT assay)
Format: cell-based
Conditions: for SI (Selectivity Index): ratio between IC50 for effect on HepG2 cell viability and MIC against E. coli
Description: Effect of compounds on mammalian cell viability was estimated on the HepG2 cell line ATCC HB-8065. In brief, HepG2 cells were seeded into flat-bottomed 96-well plates at a concentration of 5000 cells per well. Subsequently, the cells were incubated for 24 h in a humidified incubator (5% CO2, 37 °C). Then, the medium was removed, and the cells were incubated for 48 h in a humidified incubator (5% CO2, 37 °C) with peptidomimetics in serial dilutions. Then, an 3-(4,5-dimethylthiazol-2-yl)-2,5-diphenyltetrazolium bromide (MTT) assay was performed as previously described. In brief, after incubation with the test compounds, the culture medium was removed, and then fresh medium with 0.2 mg/mL MTT was added into each well of the plate. The cells were then incubated (3 h, 37 °C, 5% CO2), followed by removal of the medium with MTT and addition of 200 μL dimethyl sulfoxide at once to each sample. Absorbance of MTT was measured using the spectrophotometer TECAN Infinite M1000 at 540 nm. The relative viability was calculated by using the formula: ODtreated cells × 100/ODcontrol cells. The IC50 values are calculated by using the program Graph Pad Prism® 5.0. For all compounds, the test range was 10–1280 μg/mL.

SMILES: NCCCC[C@H](NC(=O)CCN(Cc1ccc(F)cc1)C(=O)[C@H](CCCCN)NC(=O)CCN(Cc1ccc(F)cc1)C(=O)[C@H](CCCCN)NC(=O)CCN(Cc1ccc(F)cc1)C(=O)[C@H](CCCCN)NC(=O)CCN(Cc1ccc(F)cc1)C(=O)[C@H](CCCCN)NC(=O)CCN(Cc1ccc(F)cc1)C(=O)[C@@H](N)CCCCN)C(=O)N(CCC(N)=O)Cc1ccc(F)cc1 [Compound 1, H-[Lys-βNPhe(4-F)]6-NH2]
- SI (Selectivity Index): 58–116

SMILES: NCCCC[C@H](NC(=O)CCN(Cc1ccc(F)cc1)C(=O)[C@H](CCCCN)NC(=O)CCN(Cc1ccc(F)cc1)C(=O)[C@H](CCCCN)NC(=O)COCCNC(=O)CCN(Cc1ccc(F)cc1)C(=O)[C@H](CCCCN)NC(=O)CCN(Cc1ccc(F)cc1)C(=O)[C@H](CCCCN)NC(=O)CCN(Cc1ccc(F)cc1)C(=O)[C@@H](N)CCCCN)C(=O)N(CCC(N)=O)Cc1ccc(F)cc1 [Compound 6, H-[X]3-sPEG1-[X]3-NH2]
- SI (Selectivity Index): 190

SMILES: NCCCC[C@H](NC(=O)CCN(Cc1ccc(F)cc1)C(=O)[C@H](CCCCN)NC(=O)CCN(Cc1ccc(F)cc1)C(=O)[C@H](CCCCN)NC(=O)COCCOCCNC(=O)CCN(Cc1ccc(F)cc1)C(=O)[C@H](CCCCN)NC(=O)CCN(Cc1ccc(F)cc1)C(=O)[C@H](CCCCN)NC(=O)CCN(Cc1ccc(F)cc1)C(=O)[C@@H](N)CCCCN)C(=O)N(CCC(N)=O)Cc1ccc(F)cc1 [Compound 7, H-[X]3-sPEG2-[X]3-NH2]
- SI (Selectivity Index): 155

SMILES: NCCCC[C@H](NC(=O)CCN(Cc1ccc(F)cc1)C(=O)[C@H](CCCCN)NC(=O)CCN(Cc1ccc(F)cc1)C(=O)[C@H](CCCCN)NC(=O)COCCOCCOCCNC(=O)CCN(Cc1ccc(F)cc1)C(=O)[C@H](CCCCN)NC(=O)CCN(Cc1ccc(F)cc1)C(=O)[C@H](CCCCN)NC(=O)CCN(Cc1ccc(F)cc1)C(=O)[C@@H](N)CCCCN)C(=O)N(CCC(N)=O)Cc1ccc(F)cc1 [Compound 8, H-[X]3-sPEG3-[X]3-NH2]
- SI (Selectivity Index): 150

SMILES: NCCCC[C@H](NC(=O)CCN(Cc1ccc(F)cc1)C(=O)[C@H](CCCCN)NC(=O)CCN(Cc1ccc(F)cc1)C(=O)[C@H](CCCCN)NC(=O)CCOCCOCCOCCOCCNC(=O)CCN(Cc1ccc(F)cc1)C(=O)[C@H](CCCCN)NC(=O)CCN(Cc1ccc(F)cc1)C(=O)[C@H](CCCCN)NC(=O)CCN(Cc1ccc(F)cc1)C(=O)[C@@H](N)CCCCN)C(=O)N(CCC(N)=O)Cc1ccc(F)cc1 [Compound 9, H-[X]3-sPEG4-[X]3-NH2]
- SI (Selectivity Index): 173

SMILES: NCCCC[C@H](NC(=O)CCN(Cc1ccc(F)cc1)C(=O)[C@H](CCCCN)NC(=O)CCN(Cc1ccc(F)cc1)C(=O)[C@H](CCCCN)NC(=O)CCOCCOCCOCCOCCOCCOCCNC(=O)CCN(Cc1ccc(F)cc1)C(=O)[C@H](CCCCN)NC(=O)CCN(Cc1ccc(F)cc1)C(=O)[C@H](CCCCN)NC(=O)CCN(Cc1ccc(F)cc1)C(=O)[C@@H](N)CCCCN)C(=O)N(CCC(N)=O)Cc1ccc(F)cc1 [Compound 10, H-[X]3-sPEG6-[X]3-NH2]
- SI (Selectivity Index) for A. baumannii (ratio between HepG2 IC50 and MIC against A. baumannii): 200
- SI (Selectivity Index): 100–200

SMILES: NCCCC[C@H](NC(=O)CCN(Cc1ccc(F)cc1)C(=O)[C@H](CCCCN)NC(=O)CCN(Cc1ccc(F)cc1)C(=O)[C@H](CCCCN)NC(=O)COCCOCCN)C(=O)N(CCC(=O)NCCOCCOCC(=O)N[C@@H](CCCCN)C(=O)N(CCC(=O)N[C@@H](CCCCN)C(=O)N(CCC(=O)N[C@@H](CCCCN)C(=O)N(CCC(=O)NCCOCCOCC(N)=O)Cc1ccc(F)cc1)Cc1ccc(F)cc1)Cc1ccc(F)cc1)Cc1ccc(F)cc1 [Compound 12, H-sPEG2-[X]3-sPEG2-[X]3-sPEG2-NH2]
- SI (Selectivity Index): 21–42

SMILES: NCCCC[C@H](NC(=O)CCN(Cc1ccc(F)cc1)C(=O)[C@H](CCCCN)NC(=O)CCN(Cc1ccc(F)cc1)C(=O)[C@H](CCCCN)NC(=O)CCOCCOCCOCCOCCN)C(=O)N(CCC(=O)NCCOCCOCCOCCOCCC(=O)N[C@@H](CCCCN)C(=O)N(CCC(=O)N[C@@H](CCCCN)C(=O)N(CCC(=O)N[C@@H](CCCCN)C(=O)N(CCC(=O)NCCOCCOCCOCCOCCC(N)=O)Cc1ccc(F)cc1)Cc1ccc(F)cc1)Cc1ccc(F)cc1)Cc1ccc(F)cc1 [Compound 14, H-sPEG4-[X]3-sPEG4-[X]3-sPEG4-NH2]
- SI (Selectivity Index): 28

SMILES: NCCCC[C@H](NC(=O)CCN(Cc1ccc(F)cc1)C(=O)[C@H](CCCCN)NC(=O)COCCNC(=O)CCN(Cc1ccc(F)cc1)C(=O)[C@H](CCCCN)NC(=O)CCN(Cc1ccc(F)cc1)C(=O)[C@H](CCCCN)NC(=O)COCCNC(=O)CCN(Cc1ccc(F)cc1)C(=O)[C@H](CCCCN)NC(=O)CCN(Cc1ccc(F)cc1)C(=O)[C@@H](N)CCCCN)C(=O)N(CCC(N)=O)Cc1ccc(F)cc1 [Compound 15, H-[X]2-sPEG1-[X]2-sPEG1-[X]2-NH2]
- SI (Selectivity Index): 142

SMILES: NCCCC[C@H](NC(=O)CCN(Cc1ccc(F)cc1)C(=O)[C@H](CCCCN)NC(=O)COCCOCCNC(=O)CCN(Cc1ccc(F)cc1)C(=O)[C@H](CCCCN)NC(=O)CCN(Cc1ccc(F)cc1)C(=O)[C@H](CCCCN)NC(=O)COCCOCCNC(=O)CCN(Cc1ccc(F)cc1)C(=O)[C@H](CCCCN)NC(=O)CCN(Cc1ccc(F)cc1)C(=O)[C@@H](N)CCCCN)C(=O)N(CCC(N)=O)Cc1ccc(F)cc1 [Compound 16, H-[X]2-sPEG2-[X]2-sPEG2-[X]2-NH2]
- SI (Selectivity Index): 300–350 and 172–344

SMILES: NCCCC[C@H](NC(=O)CCN(Cc1ccc(F)cc1)C(=O)[C@H](CCCCN)NC(=O)COCCOCCOCCNC(=O)CCN(Cc1ccc(F)cc1)C(=O)[C@H](CCCCN)NC(=O)CCN(Cc1ccc(F)cc1)C(=O)[C@H](CCCCN)NC(=O)COCCOCCOCCNC(=O)CCN(Cc1ccc(F)cc1)C(=O)[C@H](CCCCN)NC(=O)CCN(Cc1ccc(F)cc1)C(=O)[C@@H](N)CCCCN)C(=O)N(CCC(N)=O)Cc1ccc(F)cc1 [Compound 17, H-[X]2-sPEG3-[X]2-sPEG3-[X]2-NH2]
- SI (Selectivity Index): 160

SMILES: NCCCC[C@H](NC(=O)CCN(Cc1ccc(F)cc1)C(=O)[C@H](CCCCN)NC(=O)CCOCCOCCOCCOCCNC(=O)CCN(Cc1ccc(F)cc1)C(=O)[C@H](CCCCN)NC(=O)CCN(Cc1ccc(F)cc1)C(=O)[C@H](CCCCN)NC(=O)CCOCCOCCOCCOCCNC(=O)CCN(Cc1ccc(F)cc1)C(=O)[C@H](CCCCN)NC(=O)CCN(Cc1ccc(F)cc1)C(=O)[C@@H](N)CCCCN)C(=O)N(CCC(N)=O)Cc1ccc(F)cc1 [Compound 18, H-[X]2-sPEG4-[X]2-sPEG4-[X]2-NH2]
- SI (Selectivity Index): 300–350 and 160–320
